Measured values published in patent publication US20030100494A1, “Nerve protective drugs” (priority 1999, published 2003).
Non-standard residues stand in square brackets, D forms with d. Residues, ends and D or L forms follow the SMILES beside them. d2Nal = N[C@H](Cc1ccc2ccccc2c1)C(=O)O

Test system: rat ischemia-reperfusion cerebral infarction models
Assay: rat ischemia-reperfusion cerebral infarction model after transient obstruction of middle cerebral artery
Type: in vivo
Conditions: KP-102 total 0.16 mg/kg i.v.; means ± standard deviations, 14 rats/group

## C[C@H](NC(=O)[C@@H](Cc1ccc2ccccc2c1)NC(=O)[C@@H](C)N)C(=O)N[C@@H](Cc1c[nH]c2ccccc12)C(=O)N[C@H](Cc1ccccc1)C(=O)N[C@@H](CCCCN)C(N)=O [KP-102, D-alanyl-3-(2-naphthalenyl)-D-alanyl-L-alanyl-L-tryptophyl-D-phenylalanyl-L-lysineamide] (H-[dA][d2Nal]AW[dF]K-NH2)
  Body temperature (rectal temperature), 1 hour of reperfusion: 37.3 ± 0.4 °C
  Body temperature (rectal temperature), 24 hours of reperfusion: 38.1 ± 0.4 °C
  Body temperature (rectal temperature), 72 hours of reperfusion: 38.1 ± 0.5 °C
  Body temperature (rectal temperature), immediately before reperfusion: 39.4 ± 0.3 °C
